According to PubChem BioAssay AID493014 (National Center for Advancing Translational Sciences (NCATS), 2011):
Among all 340,000 compounds or so, about 170 (0.05%) were called active. Inconclusive results, whose numbers are uncertain, are shown with a selection of clear calls. Calls follow the shape of the dose curve; as a rule, active = well fitted inhibition curve with a large enough effect in the signal ratio, with a control signal flat (not every such curve was filed as active); inconclusive = small, poorly fitted or top-dose-only effect, or effect the other way, or a change in a side signal; inactive = flat fitted curve, though single readings scatter; the % refers to the signal ratio. Where the call is inconclusive, the potency comes from a doubtful curve fit.
Potency is read from the fitted curve at half-maximal effect.

Assay: qHTS Assay to Find Inhibitors of Chronic Active B-Cell Receptor Signaling;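 as to activity change, negative = inhibition: plate controls were basal doxycycline-induced cells for no effect and cells given 10 µM MG132 for full effect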
Settings: ABC-DLBCL IkBa-CBG/CBR reporter, luminescence ratio (green luciferase fused to IkBa over red control in TMD8 lymphoma cells), 4 h; activity change, negative = inhibition: at 46.1 µM (top of the series)
Procedure, shortened: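 TMD8 human ABC-DLBCL cells with doxycycline-inducible IκBα–green luciferase fusion and unfused red luciferase, in 0.5% FBS medium; compounds up to 46 uM, 4 h at 37C. Green/red luminescence ratio, filter-overlap corrected, fitted to concentration-response curves.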
For `CC12CCC(=O)N1C(C(=O)Nc1ccc(SC(F)F)cc1)CS2` (stereo unspecified), the activity change, negative = inhibition was inconclusive: 9.59%. For `Cc1cc(Cl)ccc1OCCCC(=O)NO`, the Potency was inconclusive: 20.6 µM [falling, partial curve]. In the case of `O=C(NCCN1CCOCC1)c1ccc(Cl)cc1`, the activity change, negative = inhibition is reported as inconclusive: 0.457%. For `C=CCNc1ncnc2c1[nH]c1ccccc12`, the activity change, negative = inhibition was “inactive”. For `CC(C)Oc1cc(NC(=O)CS(=O)CC(=O)N(C)C)c(Cl)cc1Cl` (stereo unspecified), the activity change, negative = inhibition was inconclusive: -27.3%. With `CCN1CCCC1CNC(=O)c1ccc2c(c1)N(Cc1cccc(Cl)c1)C(=O)c1ccccc1S2(=O)=O` (stereo unspecified) the activity change, negative = inhibition was inconclusive: -2.71%. For `Cc1ccccc1NC(=O)c1sc(NC(=O)COc2ccccc2)c(C#N)c1C`, the activity change, negative = inhibition was inconclusive: 18.3%. With `COc1ccc2cc3cc(C(=O)NCc4cccs4)oc3nc2c1` the activity change, negative = inhibition was inconclusive: 7.28%. With `Cc1cccc(Nc2ncnc3c2cnn3C)c1` the activity change, negative = inhibition was “inactive”. In the case of `COC(=O)c1cccc(NC(=O)CN2CCN(c3ccc(OC)cc3)CC2)c1`, the activity change, negative = inhibition is reported as inconclusive: 2.52%. In the case of `CCOc1ccc(N2C(=O)c3[nH]nc(-c4ccccc4)c3C2c2ccc(O)c(OC)c2)cc1` (stereo unspecified), the Potency is reported as inconclusive: 11.2 µM [falling, single point]. With `CCC(=O)N(Cc1cc2cc(OC)ccc2[nH]c1=O)c1cc(C)ccc1C` the activity change, negative = inhibition was inconclusive: 0.392%. With `COc1cc(-c2cc(N)n(S(=O)(=O)c3ccccc3)n2)cc(OC)c1OC` the Potency was inconclusive: 25.9 µM [falling, partial curve, poor fit]. With `CC(C)c1ccc(-c2c(C#N)c(N)nc(SCC(=O)N3CCCCC3)c2C#N)cc1` the activity change, negative = inhibition was “inactive”. With `CCCn1c(-c2ccc[nH]c2=O)nc2cc(C)c(C)cc21` the Potency was inconclusive: 25.1 µM [falling, single point]. With `CCCCn1c(N)c(N(CCOC)C(=O)COC(=O)COc2cccc(C(C)=O)c2)c(=O)[nH]c1=O` the activity change, negative = inhibition was inconclusive: 10.8%. In the case of `CCCC(=O)Nc1cccc(NC(=O)CN2CCN(c3ccccc3OC)CC2)c1`, the activity change, negative = inhibition is reported as inconclusive: 1.93%. For `Nc1cccc(-c2nc3ccc(C(=O)c4ccccc4)cc3[nH]2)c1`, the Potency was inconclusive: 17.8 µM [cytotoxic, single point]. For `O=C(N/N=C/c1ccc2nccnc2c1)c1ccncc1`, the Potency was inconclusive: 22.4 µM [falling, single point]. In the case of `O=C1CSC(=Nc2ccc(Cl)cc2)N1Cc1cccnc1`, the activity change, negative = inhibition is reported as inconclusive: -20%. In the case of `COc1cc(O)c(CCC(=O)c2ccc(OC)c(OC)c2)c(OC)c1`, the activity change, negative = inhibition is reported as inconclusive: -17.3%. For `Cc1ccc(S(=O)(=O)NCCCN2CCOCC2)c(C)c1`, the activity change, negative = inhibition was inconclusive: 2.84%. For `COc1cccc(C(=O)Nc2sc3c(c2C(=O)O)CCCC3)c1`, the activity change, negative = inhibition was inconclusive: 165%. In the case of `COc1ccccc1NC(=S)NCCSc1ccc(Cl)cc1`, the Potency is reported as inconclusive: 20.6 µM [falling, partial curve]. With `COc1ccc2cc(C#N)c(N3CCN(C(=O)c4ccccc4C)CC3)nc2c1` the activity change, negative = inhibition was inconclusive: -1.05%. With `COc1ccc(OC)c(CCNC(=O)c2ccc(CS(=O)(=O)c3ccc(Br)cc3)o2)c1` the Potency was inconclusive: 20 µM [falling, partial curve, poor fit]. In the case of `CC1(C)Cc2c(sc(NC(=O)c3ccccc3Cl)c2C(=O)O)CO1`, the Potency is reported as inconclusive: 31.6 µM [rising, partial curve]. With `CCC(=O)Nc1nnc(-c2ccco2)o1` the Potency was inconclusive: 29.1 µM [falling, single point]. With `CCOc1ccc2oc(C(=O)N(CC)CC(=O)Nc3ccc(NC(C)=O)cc3)c(C)c2c1` the activity change, negative = inhibition was inconclusive: 1.78%. In the case of `N#Cc1cnc2nc(SCc3ccccc3)nn2c1`, the activity change, negative = inhibition is reported as inconclusive: -10%. In the case of `CCc1ccccc1NC(=S)N(CCCN1CCOCC1)Cc1ccccn1`, the activity change, negative = inhibition is reported as inconclusive: -13.7%. With `O=C(Nc1cccc(NC(=O)c2cccs2)c1)c1ccc([N+](=O)[O-])o1` the Potency was inconclusive: 1.41 µM [falling, full curve]. With `Cc1cccc(NC(=O)c2cc(-c3cccnc3)nc3c(C)cccc23)n1` the activity change, negative = inhibition was “inactive”. With `Cc1csc2nc(O)c(C(=O)NCCCc3ccccc3)c(=O)n12` the activity change, negative = inhibition was inconclusive: -15.3%. In the case of `COc1ccc2nc(NC(=O)C3=NN(c4ccccc4)C(=O)CC3)sc2c1`, the activity change, negative = inhibition is reported as inconclusive: -17.6%. For `COc1cccc(OC)c1C(=O)Nc1cc2c(cc1N1CCOCC1)n(C)c(=O)n2C`, the activity change, negative = inhibition was inconclusive: -13.6%. In the case of `N/C(=N\NC(=O)Nc1ccccc1)c1ccccn1`, the Potency is reported as inconclusive: 14.1 µM [falling, partial curve]. In the case of `Cc1ccc(C(=O)Nc2cccc(C(=O)O)c2)cc1S(=O)(=O)N1CCCCC1`, the activity change, negative = inhibition is reported as “inactive”. With `c1ccc(-c2nnc(-c3ccccc3)o2)cc1` the Potency was inconclusive: 15.8 µM [falling, partial curve]. In the case of `CC(C)Cn1c(SC(C)C(=O)Nc2ccc3c(c2)OCCO3)nc2ccccc2c1=O` (stereo unspecified), the activity change, negative = inhibition is reported as inconclusive: -0.741%. In the case of `CC(C)CC(=O)Nc1ccc(C(=O)NNC(=O)C(c2ccccc2)c2ccccc2)cc1`, the activity change, negative = inhibition is reported as inconclusive: 9.68%. With `CCN(CC)S(=O)(=O)c1cc(F)ccc1OC` the activity change, negative = inhibition was inconclusive: 4.97%. In the case of `COC(=O)c1sc(N)c(C(=O)OC)c1Cn1ncc(Cl)c(Cl)c1=O`, the Potency is reported as inconclusive: 12.6 µM [falling, partial curve]. In the case of `Cc1cc(OCC(=O)NCCc2ccc(Cl)cc2)c2c(C)cc(=O)oc2c1`, the activity change, negative = inhibition is reported as “inactive”. In the case of `CCOC(=O)C1CCCN(C(=O)c2sc3nc(-c4ccc(OC)cc4)cn3c2C)C1` (stereo unspecified), the Potency is reported as inconclusive: 25.1 µM [falling, single point]. With `O=C(CCC1CCCCC1)NCc1cccs1` the activity change, negative = inhibition was inconclusive: 4.26%. In the case of `CCCCn1c(-c2csc3ccccc23)n[nH]c1=S`, the Potency is reported as inconclusive: 3.66 µM [falling, partial curve, poor fit]. In the case of `N#C/C(=N\Nc1ccccc1Cl)C(=O)c1ccccc1`, the Potency is reported as inconclusive: 35.5 µM [rising, single point]. With `O=C(N/N=C/c1ccc(C(F)(F)F)cc1)c1ccncc1` the activity change, negative = inhibition was “inactive”. For `c1ccc(-n2cc(CN3CCC(N4CCOCC4)CC3)c(-c3ccc4c(c3)OCO4)n2)cc1`, the activity change, negative = inhibition was “inactive”. In the case of `Cc1ccc([N+](=O)[O-])cc1NCC(=O)NN`, the Potency is reported as inconclusive: 35.5 µM [falling, single point].
